The source of these data is article PMC7819943, “Rice protein-binding microarrays: a tool to detect cis-acting elements near promoter regions in rice”.

Protein sequences, listed by entry. Tags and fused reporters are not part of them.
UniProt Q0JBA9, entry or part of it: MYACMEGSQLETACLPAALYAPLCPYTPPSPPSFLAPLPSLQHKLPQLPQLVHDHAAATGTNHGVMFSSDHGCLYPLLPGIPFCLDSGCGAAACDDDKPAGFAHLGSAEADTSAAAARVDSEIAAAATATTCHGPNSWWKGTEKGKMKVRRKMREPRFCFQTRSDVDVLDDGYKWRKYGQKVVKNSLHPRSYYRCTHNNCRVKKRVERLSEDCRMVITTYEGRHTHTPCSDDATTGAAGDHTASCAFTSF

Some of the results follow.

The experiment concerns the target OsWRKY34 (Oryza sativa, UniProt Q0JBA9 1-250). The experiment in a line: protein-binding microarray (RPBM); PBS, 2% BSA, 51.3 ng/ul salmon testes DNA, 50 uM zinc acetate, 200 nM TF, 25 C, 1 h; high values mean tight binding. Particulars: protein: recombinant; tags: N-terminal polyhistidine and DsRed monomer fusion (pET32a); label: CyDye5-dUTP incorporated in the synthesized complementary strand; 3' TTTTT single-stranded linker to array surface; dsDNA, one strand shown. The method, boiled down:
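Binding signal is defined as the fluorescence intensity of each feature in arbitrary units, read on an Axon 4000B scanner. Transcription factors with N-terminal polyhistidine and DsRed fusions came from E. coli BL21-CodonPlus and were purified on Ni–NTA. They were incubated at 200 nM for 1 h at 25 °C on a custom Agilent array that had been made double-stranded with Cy5-dUTP, with 50 µM zinc acetate present, and the array was washed.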
Consider “ATCCAACTACTACTTGGCCGCCTCACACGCTCCCACTCTTCGGAGTCACCTAGTGCAG”, for which the binding signal is 10100 fluorescence intensity (a.u.).
“TGCTCATCACCATCTCCTTCACCTTCTCTTTCCCCACACTCGGAGTCACCTAGTGCAG”: the binding signal is 12500 fluorescence intensity (a.u.).
The result for “CTCACGCGCTCTCCCCTGCCCAACCACCACGCAAACAAACCGGAGTCACCTAGTGCAG” reads 9550 fluorescence intensity (a.u.); that for “TTCTCGTCGGGCTCAAGGTCAATTACTGCTGCTCATTTTTCGGAGTCACCTAGTGCAG”, 12300 fluorescence intensity (a.u.); that for “ACTTTTCCATCACATCGTTTCAATTTCAACCAAACTTCCACGGAGTCACCTAGTGCAG”, 9010 fluorescence intensity (a.u.).
Regarding “TTCGTTGGTTTCATAATGTGTCTATCGATGTTATAGTATGCGGAGTCACCTAGTGCAG”, the binding signal is 8340 fluorescence intensity (a.u.).
As to “GGGGAGTTGCGGGAGGGAGGCATAGGGGACGCCGGCGAGGCGGAGTCACCTAGTGCAG”, the binding signal is 9650 fluorescence intensity (a.u.).
As to “AGGAGGAGGAGGAGGCGGTGGCGGTGTTGCTGTCCGGTGACGGAGTCACCTAGTGCAG”, the binding signal was 10200 fluorescence intensity (a.u.).
The value for “CAATCAGCCGCCGAATCTGCATACAACCTCCGTTTTTGACCGGAGTCACCTAGTGCAG” was 8260 fluorescence intensity (a.u.); that for “TGGGTAGCCGGCGCTTATTTAGTCGCTTGCTCTCGTTCTCCGGAGTCACCTAGTGCAG” was 9340 fluorescence intensity (a.u.).
For “TCACATGGAATCATACCGATTTAGCTCTTGTATACATTTGCGGAGTCACCTAGTGCAG”, the binding signal is 9340 fluorescence intensity (a.u.).
The result for “GTTAGCAGGAGTTAGGTAAATCATTTTCAGACCATAATATCGGAGTCACCTAGTGCAG” reads 9090 fluorescence intensity (a.u.); that for “AAGCATTGTTTCATCGTCGTTTCAACAGATTGATTGTTCTCGGAGTCACCTAGTGCAG”, 11000 fluorescence intensity (a.u.); that for “TGTTGTTCATGAACACTTTGTACTCTTCAGTCTCTTTTCGCGGAGTCACCTAGTGCAG”, 10500 fluorescence intensity (a.u.).
Regarding “TTTTTCCCACCTACGTAAGCTGCCTAGCCCATTTGCAAGTCGGAGTCACCTAGTGCAG”, the binding signal is 8440 fluorescence intensity (a.u.).
Regarding “ACCTATTATACACACATAACTTTTCAGCCACATCATCTTTCGGAGTCACCTAGTGCAG”, the binding signal was 8790 fluorescence intensity (a.u.).
Turning to “TATGTGACGCTCCACGCCGACACACATTTGCATTTGGCTCCGGAGTCACCTAGTGCAG”, the binding signal is 8070 fluorescence intensity (a.u.).
For the sequence “ATGCACACACAATCCATATCCATATCCATAAATCTTATAGCGGAGTCACCTAGTGCAG”, the binding signal is 8530 fluorescence intensity (a.u.).
“ATTTACTGGTTTTTCACCGGATTTCACGAAATTCCGAATTCGGAGTCACCTAGTGCAG”: the binding signal is 9230 fluorescence intensity (a.u.).
For “GTCCCACCTATTATACACACTGTATTCTAAAGTTCGTGTTCGGAGTCACCTAGTGCAG”, the binding signal was 8740 fluorescence intensity (a.u.).
Turning to “TGACATCTCTAGACTTCCCACACGGTTTCCACACTATTTTCGGAGTCACCTAGTGCAG”, the binding signal was 10100 fluorescence intensity (a.u.).
Turning to “GCCTCTCCATCTCTCGAGCCATCGCCGACGTCGTCAAGAACGGAGTCACCTAGTGCAG”, the binding signal was 10300 fluorescence intensity (a.u.).
As to “TTTCTATGGGGAGGTGGGGAGGTAGGTGAGTGAAGTGCGGCGGAGTCACCTAGTGCAG”, the binding signal was 10100 fluorescence intensity (a.u.).
Take “CGTGACCATGACGCATCCTCTGCTTTCAACCTTTGTTCTTCGGAGTCACCTAGTGCAG”: the binding signal is 8570 fluorescence intensity (a.u.).
The value for “CATGCCTAGTGTGAGTAGCATTTACGGTTTGGGGAATTGACGGAGTCACCTAGTGCAG” was 8120 fluorescence intensity (a.u.); that for “CATTCACTAGTGGTTTGCTTCCAGTTCCTATCCAATCTCTCGGAGTCACCTAGTGCAG” was 9590 fluorescence intensity (a.u.).
On to “GATTCAATTTTTCCTTCCGCGCTCATCATAAATAGCAGCACGGAGTCACCTAGTGCAG”, for which the binding signal is 8860 fluorescence intensity (a.u.).
For “CGGTGTCGCTCACCGATCAGTGTTGGCCGTGCTGTCGACGCGGAGTCACCTAGTGCAG”, the binding signal is 8750 fluorescence intensity (a.u.).
In the case of “GCATTCCATCTGTAGGTTATTTAGCACCCACCCAAGTTTTCGGAGTCACCTAGTGCAG”, the binding signal was 10000 fluorescence intensity (a.u.).
As for “TCAAACGACCATTTTCCTGTATTTTGCAATCCTCTATTTTCGGAGTCACCTAGTGCAG”, the binding signal is 13600 fluorescence intensity (a.u.).
On to “CTCCCGCACCCCTACCACCACCGTTCGTGTACGTGTCACCCGGAGTCACCTAGTGCAG”, for which the binding signal is 9260 fluorescence intensity (a.u.).
In the case of “ATCATACTACCTGTCTTCTATCAGCCGCTCTTGTTAGGGTCGGAGTCACCTAGTGCAG”, the binding signal was 10200 fluorescence intensity (a.u.).
Consider “TGTCTGATCCCGTGTGCAGGGCCTGCGAGGCAATAACCTCCGGAGTCACCTAGTGCAG”, for which the binding signal was 8160 fluorescence intensity (a.u.).
Turning to “GTTATATGTTACATGGAATAATTTTGTGTTGATGTTTTTACGGAGTCACCTAGTGCAG”, the binding signal is 8430 fluorescence intensity (a.u.).
As for “TCGTCTCGCGGTTTACTAATGGATTCTGTAATTAGTTTTTCGGAGTCACCTAGTGCAG”, the binding signal was 9240 fluorescence intensity (a.u.).
As to “CTTTTTTTCCTTGCATAAGTTTTCATGCAGTTTCTTATTACGGAGTCACCTAGTGCAG”, the binding signal is 9820 fluorescence intensity (a.u.).
“CCATTACATCCTACTACTACTCTCCGCCGTCAAAGACGGCCGGAGTCACCTAGTGCAG”: the binding signal was 8060 fluorescence intensity (a.u.).
Consider “TGGCTCGTCACATTTCCTCTATATGACCCCAAATGTCACACGGAGTCACCTAGTGCAG”, for which the binding signal is 8120 fluorescence intensity (a.u.).
As to “TGCCACCTGAGGTCAACAACCAAATCCATTTTCCTCCCATCGGAGTCACCTAGTGCAG”, the binding signal is 8330 fluorescence intensity (a.u.).
The result for “CTTAAAATTTTTGTGTTTTTTCTGCGGTCTAATCAAATGACGGAGTCACCTAGTGCAG” reads 9040 fluorescence intensity (a.u.); that for “GATTGTGTTGTACATGCACACCGTATTCTGAACATTTTCTCGGAGTCACCTAGTGCAG”, 8690 fluorescence intensity (a.u.).
Consider “GCCGCCGCTGCTTGCTTCACTCGCCTCAGATCCGCGCCGCCGGAGTCACCTAGTGCAG”, for which the binding signal was 8220 fluorescence intensity (a.u.).
